Results published in paper PMC6776500.
No constants are given. Whether binding was seen depends on the method and setting. In cells and extracts the contact can be indirect. Some entries that bind do so weakly or less than the wild type. Values belong to the molecule of their own block, whether it stands above or below them.

Protein sequences, listed by entry. Tags and fused reporters are not part of them.
UniProt O14576: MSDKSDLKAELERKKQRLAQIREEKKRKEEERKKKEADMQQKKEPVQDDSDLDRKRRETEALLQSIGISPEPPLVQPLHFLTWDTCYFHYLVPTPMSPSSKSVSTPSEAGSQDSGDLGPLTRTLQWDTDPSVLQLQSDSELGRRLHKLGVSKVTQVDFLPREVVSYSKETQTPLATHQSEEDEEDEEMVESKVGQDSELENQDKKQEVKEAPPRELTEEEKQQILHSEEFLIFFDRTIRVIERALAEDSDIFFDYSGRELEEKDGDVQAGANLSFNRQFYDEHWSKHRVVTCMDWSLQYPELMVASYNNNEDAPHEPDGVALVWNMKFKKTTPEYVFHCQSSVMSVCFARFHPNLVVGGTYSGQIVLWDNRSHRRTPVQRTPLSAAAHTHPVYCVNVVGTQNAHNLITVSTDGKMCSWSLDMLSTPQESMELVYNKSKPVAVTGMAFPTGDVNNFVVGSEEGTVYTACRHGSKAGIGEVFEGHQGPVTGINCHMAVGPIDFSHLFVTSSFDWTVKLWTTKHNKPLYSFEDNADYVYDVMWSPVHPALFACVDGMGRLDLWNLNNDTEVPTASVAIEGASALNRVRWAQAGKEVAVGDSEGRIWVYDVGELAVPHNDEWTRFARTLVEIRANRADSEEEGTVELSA
UniProt Q15154: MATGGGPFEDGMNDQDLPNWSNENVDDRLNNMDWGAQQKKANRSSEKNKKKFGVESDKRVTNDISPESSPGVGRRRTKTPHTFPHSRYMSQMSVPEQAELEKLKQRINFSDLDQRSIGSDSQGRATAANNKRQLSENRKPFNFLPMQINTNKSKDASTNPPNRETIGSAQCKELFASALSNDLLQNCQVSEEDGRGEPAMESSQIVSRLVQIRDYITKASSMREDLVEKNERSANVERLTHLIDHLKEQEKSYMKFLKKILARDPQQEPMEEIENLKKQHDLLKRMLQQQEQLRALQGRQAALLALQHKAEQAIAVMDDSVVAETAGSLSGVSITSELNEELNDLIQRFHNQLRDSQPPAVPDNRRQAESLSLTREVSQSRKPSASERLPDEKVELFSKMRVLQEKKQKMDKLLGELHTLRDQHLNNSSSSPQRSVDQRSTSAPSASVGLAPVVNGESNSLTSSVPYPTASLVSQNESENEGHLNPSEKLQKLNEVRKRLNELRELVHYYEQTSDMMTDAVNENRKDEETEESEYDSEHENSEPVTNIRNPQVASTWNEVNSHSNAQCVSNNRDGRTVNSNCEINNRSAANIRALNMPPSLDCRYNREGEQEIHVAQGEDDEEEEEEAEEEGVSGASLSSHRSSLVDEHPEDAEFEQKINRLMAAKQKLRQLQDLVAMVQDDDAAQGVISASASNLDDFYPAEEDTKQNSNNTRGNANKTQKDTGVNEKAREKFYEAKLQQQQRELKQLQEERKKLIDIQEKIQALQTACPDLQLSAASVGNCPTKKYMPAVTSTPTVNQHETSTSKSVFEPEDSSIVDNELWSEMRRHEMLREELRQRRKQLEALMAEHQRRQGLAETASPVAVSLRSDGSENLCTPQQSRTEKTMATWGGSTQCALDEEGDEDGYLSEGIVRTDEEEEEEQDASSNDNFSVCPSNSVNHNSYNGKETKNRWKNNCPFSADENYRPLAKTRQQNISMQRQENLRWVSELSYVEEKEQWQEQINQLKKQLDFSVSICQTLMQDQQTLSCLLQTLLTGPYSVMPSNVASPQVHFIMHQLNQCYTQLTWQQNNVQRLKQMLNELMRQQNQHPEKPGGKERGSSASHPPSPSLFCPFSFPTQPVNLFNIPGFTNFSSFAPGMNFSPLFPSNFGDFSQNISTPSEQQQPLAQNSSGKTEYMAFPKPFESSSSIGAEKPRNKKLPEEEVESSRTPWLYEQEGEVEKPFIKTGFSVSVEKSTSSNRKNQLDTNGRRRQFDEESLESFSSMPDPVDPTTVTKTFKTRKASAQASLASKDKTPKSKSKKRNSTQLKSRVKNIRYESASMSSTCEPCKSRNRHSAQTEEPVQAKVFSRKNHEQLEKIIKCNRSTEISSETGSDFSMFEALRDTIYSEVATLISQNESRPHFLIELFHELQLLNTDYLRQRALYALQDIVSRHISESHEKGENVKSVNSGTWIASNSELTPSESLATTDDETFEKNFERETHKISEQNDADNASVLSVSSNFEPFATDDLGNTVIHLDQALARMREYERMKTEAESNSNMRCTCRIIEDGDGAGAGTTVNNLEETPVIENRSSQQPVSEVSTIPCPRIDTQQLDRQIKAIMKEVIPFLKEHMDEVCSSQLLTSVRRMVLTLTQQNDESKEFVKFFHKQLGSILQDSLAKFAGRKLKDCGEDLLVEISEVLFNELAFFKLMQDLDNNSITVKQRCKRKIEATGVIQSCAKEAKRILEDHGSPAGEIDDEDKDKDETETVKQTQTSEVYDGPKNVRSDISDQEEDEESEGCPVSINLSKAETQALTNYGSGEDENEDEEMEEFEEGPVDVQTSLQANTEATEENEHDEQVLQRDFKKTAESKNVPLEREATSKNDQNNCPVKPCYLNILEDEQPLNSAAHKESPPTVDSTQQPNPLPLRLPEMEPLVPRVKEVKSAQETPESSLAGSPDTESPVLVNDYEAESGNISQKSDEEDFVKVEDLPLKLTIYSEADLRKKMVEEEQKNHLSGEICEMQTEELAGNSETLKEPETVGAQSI

Target: GFP-DYNC1IC1 (UniProt O14576)
Experiment: co-IP; HEK293T cells transfected with GFP or GFP-DYNC1IC1 for 48 h; lysate in IP buffer (50 mM Tris-HCl pH 7.4, 260 mM NaCl, 1% NP-40); precipitated with control IgG or anti-GFP antibody on Protein G magnetic beads at 4 °C; immunoblot

binding: binds
Molecule: Pericentriolar Material-1 (PCM1) (from UniProt Q15154 1-2024)

binding: binds
B1: BBS4 (protein, UniProt Q96RK4 1-519)
chain: MAEERVATRTQFPVSTESQKPRQKKAPEFPILEKQNWLIHLHYIRKDYEACKAVIKEQLQETQGLCEYAIYVQALIFRLEGNIQESLELFQTCAVLSPQSADNLKQVARSLFLLGKHKAAIEVYNEAAKLNQKDWEISHNLGVCYIYLKQFNKAQDQLHNALNLNRHDLTYIMLGKIHLLEGDLDKAIEVYKKAVEFSPENTELLTTLGLLYLQLGIYQKAFEHLGNALTYDPTNYKAILAAGSMMQTHGDFDVALTKYRVVACAVPESPPLWNNIGMCFFGKKKYVAAISCLKRANYLAPFDWKILYNLGLVHLTMQQYASAFHFLSAAINFQPKMGELYMLLAVALTNLEDIENAKRAYAEAVHLDKCNPLVNLNYAVLLYNQGEKKNALAQYQEMEKKVSLLKDNSSLEFDSEMVEMAQKLGAALQVGEALVWTKPVKDPKSKHQTTSTSKPASFQQPLGSNQALGQAMSSAAAYRTLPSGAGGTSQFTKPPSLPLEPEPAVESSPTETSEQIREK
